{
  "sequences": {"note": "Sequences of proteins named here, by UniProt entry; tags and fusion partners are left off. A change or cut given only in a name is not applied to a line headed by its entry.", "UniProt Q9NYB0": "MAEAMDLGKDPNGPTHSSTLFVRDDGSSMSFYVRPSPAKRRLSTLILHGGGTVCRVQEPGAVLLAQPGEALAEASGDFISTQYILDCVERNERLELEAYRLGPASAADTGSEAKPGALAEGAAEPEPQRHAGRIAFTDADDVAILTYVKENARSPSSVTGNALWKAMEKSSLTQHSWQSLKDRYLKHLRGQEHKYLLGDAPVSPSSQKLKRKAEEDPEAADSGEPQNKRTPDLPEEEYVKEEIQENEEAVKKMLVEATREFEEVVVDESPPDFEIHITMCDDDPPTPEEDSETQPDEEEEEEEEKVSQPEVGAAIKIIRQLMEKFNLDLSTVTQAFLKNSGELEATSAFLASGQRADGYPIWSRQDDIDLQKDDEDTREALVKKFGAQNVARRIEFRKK", "UniProt Q9NUY8": "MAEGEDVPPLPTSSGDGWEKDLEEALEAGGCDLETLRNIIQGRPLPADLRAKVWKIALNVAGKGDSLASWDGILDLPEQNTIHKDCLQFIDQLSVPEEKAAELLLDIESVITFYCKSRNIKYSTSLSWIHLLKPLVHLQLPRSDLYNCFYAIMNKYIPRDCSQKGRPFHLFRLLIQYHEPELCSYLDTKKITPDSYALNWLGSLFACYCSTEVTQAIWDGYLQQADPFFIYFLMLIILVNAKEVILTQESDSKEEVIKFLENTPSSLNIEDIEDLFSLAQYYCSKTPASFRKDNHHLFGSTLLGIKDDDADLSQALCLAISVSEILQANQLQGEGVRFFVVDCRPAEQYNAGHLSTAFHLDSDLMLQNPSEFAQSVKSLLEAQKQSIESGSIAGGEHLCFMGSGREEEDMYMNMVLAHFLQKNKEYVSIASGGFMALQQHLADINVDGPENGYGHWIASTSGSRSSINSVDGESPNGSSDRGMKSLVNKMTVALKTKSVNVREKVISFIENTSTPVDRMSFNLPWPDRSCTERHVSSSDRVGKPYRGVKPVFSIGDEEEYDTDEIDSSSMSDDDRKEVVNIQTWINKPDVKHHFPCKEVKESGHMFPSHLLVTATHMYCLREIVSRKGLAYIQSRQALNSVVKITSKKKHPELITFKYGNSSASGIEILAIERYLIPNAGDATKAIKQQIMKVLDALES", "UniProt O75663": "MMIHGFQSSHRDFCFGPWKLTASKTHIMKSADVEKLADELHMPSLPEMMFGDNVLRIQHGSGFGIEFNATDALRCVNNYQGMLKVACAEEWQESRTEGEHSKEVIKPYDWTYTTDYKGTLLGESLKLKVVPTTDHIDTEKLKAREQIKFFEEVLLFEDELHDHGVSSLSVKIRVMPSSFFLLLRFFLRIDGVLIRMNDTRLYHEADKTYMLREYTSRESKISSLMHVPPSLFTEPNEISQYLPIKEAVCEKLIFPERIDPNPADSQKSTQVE", "UniProt Q9BTW9": "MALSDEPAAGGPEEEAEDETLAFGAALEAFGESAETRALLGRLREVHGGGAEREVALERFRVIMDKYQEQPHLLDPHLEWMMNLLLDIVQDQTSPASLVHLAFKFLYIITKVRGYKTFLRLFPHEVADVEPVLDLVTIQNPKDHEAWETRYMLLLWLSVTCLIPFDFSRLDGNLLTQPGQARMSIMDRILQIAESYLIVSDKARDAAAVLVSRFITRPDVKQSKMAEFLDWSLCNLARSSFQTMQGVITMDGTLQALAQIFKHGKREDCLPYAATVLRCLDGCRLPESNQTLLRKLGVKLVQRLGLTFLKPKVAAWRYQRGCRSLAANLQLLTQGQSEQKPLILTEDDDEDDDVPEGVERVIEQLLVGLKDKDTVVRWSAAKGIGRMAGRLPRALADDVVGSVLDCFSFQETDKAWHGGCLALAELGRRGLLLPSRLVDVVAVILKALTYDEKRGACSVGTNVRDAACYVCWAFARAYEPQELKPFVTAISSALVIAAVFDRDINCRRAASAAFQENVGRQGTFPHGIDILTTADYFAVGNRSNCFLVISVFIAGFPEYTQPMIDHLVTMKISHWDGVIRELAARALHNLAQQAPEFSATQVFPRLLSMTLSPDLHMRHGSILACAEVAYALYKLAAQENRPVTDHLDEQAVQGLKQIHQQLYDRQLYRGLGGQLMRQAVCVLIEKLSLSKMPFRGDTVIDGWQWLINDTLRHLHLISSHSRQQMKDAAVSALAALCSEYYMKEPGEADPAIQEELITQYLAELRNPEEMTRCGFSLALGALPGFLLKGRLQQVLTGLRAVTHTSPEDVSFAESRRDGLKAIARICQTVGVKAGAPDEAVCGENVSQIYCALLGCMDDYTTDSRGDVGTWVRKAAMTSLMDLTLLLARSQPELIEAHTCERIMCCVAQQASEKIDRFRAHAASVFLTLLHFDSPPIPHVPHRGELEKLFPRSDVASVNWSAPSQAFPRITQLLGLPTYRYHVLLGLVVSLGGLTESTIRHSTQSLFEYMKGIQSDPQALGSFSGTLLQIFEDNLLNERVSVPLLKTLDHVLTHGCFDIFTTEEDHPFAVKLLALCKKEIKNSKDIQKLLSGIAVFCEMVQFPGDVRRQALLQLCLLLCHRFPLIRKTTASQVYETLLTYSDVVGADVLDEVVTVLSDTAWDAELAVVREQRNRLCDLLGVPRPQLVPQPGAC", "UniProt Q9ULP9": "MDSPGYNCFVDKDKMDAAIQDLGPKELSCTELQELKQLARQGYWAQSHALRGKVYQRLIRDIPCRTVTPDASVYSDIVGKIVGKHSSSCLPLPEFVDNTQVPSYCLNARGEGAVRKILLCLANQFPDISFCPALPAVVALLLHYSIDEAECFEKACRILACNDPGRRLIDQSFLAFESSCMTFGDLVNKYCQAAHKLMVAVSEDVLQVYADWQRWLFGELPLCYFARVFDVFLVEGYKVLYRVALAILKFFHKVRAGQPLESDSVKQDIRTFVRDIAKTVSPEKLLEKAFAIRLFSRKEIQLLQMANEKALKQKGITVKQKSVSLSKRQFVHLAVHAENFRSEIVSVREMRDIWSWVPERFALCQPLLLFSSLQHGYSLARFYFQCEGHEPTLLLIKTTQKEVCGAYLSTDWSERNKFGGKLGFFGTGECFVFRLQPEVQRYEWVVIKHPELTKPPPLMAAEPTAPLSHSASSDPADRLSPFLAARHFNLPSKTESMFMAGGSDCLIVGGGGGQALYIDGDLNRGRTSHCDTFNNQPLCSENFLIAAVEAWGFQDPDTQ", "UniProt Q9Y2W1": "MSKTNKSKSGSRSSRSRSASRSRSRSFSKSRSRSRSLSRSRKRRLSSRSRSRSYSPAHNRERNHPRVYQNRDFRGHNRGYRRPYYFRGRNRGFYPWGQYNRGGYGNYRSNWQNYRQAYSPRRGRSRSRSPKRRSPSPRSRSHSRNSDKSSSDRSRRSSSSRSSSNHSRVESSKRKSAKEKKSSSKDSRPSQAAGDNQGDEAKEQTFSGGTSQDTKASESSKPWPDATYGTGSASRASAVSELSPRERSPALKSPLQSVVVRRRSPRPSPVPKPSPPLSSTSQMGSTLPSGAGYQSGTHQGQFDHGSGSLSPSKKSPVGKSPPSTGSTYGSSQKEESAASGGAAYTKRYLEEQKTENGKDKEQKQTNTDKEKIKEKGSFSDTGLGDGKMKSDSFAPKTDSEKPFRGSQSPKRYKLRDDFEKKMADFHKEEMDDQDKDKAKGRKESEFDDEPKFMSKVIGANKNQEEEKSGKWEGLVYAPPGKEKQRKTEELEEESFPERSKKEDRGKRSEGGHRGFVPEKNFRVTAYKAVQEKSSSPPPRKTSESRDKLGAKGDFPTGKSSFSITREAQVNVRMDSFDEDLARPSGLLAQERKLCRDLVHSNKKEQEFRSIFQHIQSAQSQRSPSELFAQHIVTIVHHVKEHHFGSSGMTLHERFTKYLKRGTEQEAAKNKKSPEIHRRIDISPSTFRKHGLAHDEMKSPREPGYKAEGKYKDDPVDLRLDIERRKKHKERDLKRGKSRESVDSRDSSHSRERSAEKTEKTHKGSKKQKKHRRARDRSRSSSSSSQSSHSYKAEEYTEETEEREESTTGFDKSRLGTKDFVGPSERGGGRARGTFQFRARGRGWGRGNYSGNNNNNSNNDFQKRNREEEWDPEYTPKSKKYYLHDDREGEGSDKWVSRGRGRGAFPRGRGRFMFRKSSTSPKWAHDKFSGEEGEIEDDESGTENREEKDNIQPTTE", "UniProt O43615": "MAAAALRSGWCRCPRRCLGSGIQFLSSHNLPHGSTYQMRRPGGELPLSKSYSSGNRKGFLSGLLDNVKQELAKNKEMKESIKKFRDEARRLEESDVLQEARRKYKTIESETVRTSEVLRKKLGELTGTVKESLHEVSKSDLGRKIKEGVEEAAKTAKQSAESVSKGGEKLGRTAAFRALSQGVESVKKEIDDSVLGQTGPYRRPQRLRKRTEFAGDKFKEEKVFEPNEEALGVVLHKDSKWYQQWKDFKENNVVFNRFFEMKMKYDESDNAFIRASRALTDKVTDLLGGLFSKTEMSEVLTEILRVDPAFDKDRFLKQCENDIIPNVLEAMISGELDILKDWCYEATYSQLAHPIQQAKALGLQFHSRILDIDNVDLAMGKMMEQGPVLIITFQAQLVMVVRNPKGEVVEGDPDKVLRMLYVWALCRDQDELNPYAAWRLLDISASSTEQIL", "UniProt Q9BVV7": "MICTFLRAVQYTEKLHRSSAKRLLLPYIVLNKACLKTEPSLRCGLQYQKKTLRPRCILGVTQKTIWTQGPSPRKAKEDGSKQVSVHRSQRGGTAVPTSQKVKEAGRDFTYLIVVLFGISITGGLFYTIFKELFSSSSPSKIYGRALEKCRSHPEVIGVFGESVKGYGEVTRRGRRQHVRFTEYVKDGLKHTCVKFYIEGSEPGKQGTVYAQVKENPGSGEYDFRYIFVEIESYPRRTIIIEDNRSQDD", "UniProt Q8NHU6": "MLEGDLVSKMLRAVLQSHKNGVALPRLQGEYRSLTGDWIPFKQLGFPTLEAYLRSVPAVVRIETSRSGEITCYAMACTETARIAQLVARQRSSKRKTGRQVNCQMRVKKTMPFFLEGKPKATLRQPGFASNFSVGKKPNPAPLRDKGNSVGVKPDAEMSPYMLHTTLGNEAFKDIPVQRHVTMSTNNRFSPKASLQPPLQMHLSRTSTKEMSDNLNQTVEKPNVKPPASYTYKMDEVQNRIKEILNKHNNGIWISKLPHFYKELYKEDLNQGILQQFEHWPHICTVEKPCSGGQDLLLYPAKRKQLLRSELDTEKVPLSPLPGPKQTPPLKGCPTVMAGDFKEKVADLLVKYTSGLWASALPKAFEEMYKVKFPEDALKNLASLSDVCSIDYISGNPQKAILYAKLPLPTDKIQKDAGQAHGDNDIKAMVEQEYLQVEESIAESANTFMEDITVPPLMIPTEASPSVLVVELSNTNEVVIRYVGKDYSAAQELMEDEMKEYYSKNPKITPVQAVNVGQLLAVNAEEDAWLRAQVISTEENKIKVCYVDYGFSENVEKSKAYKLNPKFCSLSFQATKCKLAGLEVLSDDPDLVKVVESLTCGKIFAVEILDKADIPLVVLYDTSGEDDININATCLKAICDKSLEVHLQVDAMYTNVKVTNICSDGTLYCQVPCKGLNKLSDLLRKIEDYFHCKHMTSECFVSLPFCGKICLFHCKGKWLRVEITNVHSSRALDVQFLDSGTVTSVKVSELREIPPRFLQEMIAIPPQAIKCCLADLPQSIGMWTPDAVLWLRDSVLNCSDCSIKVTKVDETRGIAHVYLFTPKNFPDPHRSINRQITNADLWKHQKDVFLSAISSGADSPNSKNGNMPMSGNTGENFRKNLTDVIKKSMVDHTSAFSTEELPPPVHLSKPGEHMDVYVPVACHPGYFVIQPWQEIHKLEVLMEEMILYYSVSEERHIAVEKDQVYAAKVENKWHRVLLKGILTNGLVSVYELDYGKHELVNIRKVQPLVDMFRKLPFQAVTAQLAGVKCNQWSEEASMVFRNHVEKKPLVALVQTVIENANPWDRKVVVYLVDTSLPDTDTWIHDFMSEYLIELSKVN", "UniProt Q9BQ70": "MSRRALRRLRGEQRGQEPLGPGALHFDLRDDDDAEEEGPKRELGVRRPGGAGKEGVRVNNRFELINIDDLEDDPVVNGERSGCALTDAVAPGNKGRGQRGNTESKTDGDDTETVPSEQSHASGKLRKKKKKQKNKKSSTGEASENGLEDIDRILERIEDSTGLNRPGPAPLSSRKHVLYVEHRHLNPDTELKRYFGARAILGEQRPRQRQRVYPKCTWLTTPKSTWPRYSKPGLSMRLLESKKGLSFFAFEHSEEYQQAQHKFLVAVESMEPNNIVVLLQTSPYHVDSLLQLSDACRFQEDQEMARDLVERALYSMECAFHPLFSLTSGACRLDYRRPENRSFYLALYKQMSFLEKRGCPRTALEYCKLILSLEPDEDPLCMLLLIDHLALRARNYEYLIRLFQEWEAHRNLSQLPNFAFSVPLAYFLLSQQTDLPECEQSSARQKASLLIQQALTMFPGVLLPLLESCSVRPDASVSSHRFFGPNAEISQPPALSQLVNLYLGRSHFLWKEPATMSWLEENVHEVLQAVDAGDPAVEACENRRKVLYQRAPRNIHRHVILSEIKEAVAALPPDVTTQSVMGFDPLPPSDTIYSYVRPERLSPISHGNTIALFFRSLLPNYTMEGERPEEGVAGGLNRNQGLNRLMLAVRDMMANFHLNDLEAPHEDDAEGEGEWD"},
  "source": "the supplement of paper PMC10849652",
  "note": "The list shows a part of the results.",
  "data": [
    {"compound": "CS(=O)(=O)c1ccc(-c2cnc(N)c(C(=O)Nc3ccccc3)n2)cc1", "test": "log2 fold change, soluble protein after heating vs DMSO (PISA); higher = thermal stabilisation; K562 cells, 10 uM, 30 min; active = over 0.2 and 3.5 SD of the protein, either way, in both replicates (recomputed)", "in_short": "(§1)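 K562 cells (2×10^6 cells/mL) were treated with 10 μM compound for 30 min, and aliquots were heated for 3 min over 48°C-58°C. Pooled aliquots were extracted in PBS with 0.5% NP-40 at 4°C, and the supernatant after 21,000xg for 90 min was measured by TMTpro 16plex LC-MS/MS with channel sums equalised. Reported thermal stability, relative to control samples and from duplicates, is a log2 fold change.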", "values": [
      {"target": "TERF2IP (UniProt Q9NYB0)", "log2 fold change": "inactive: -0.021"},
      {"target": "TBC1D23 (UniProt Q9NUY8)", "log2 fold change": "inactive: -0.026"},
      {"target": "TFAM (UniProt Q00059)", "log2 fold change": "inactive: -0.071"},
      {"target": "TGS1 (UniProt Q96RS0)", "log2 fold change": "inactive: -0.031"},
      {"target": "TENT5C (UniProt Q5VWP2)", "log2 fold change": "inactive: 0.044"},
      {"target": "TIPRL (UniProt O75663)", "log2 fold change": "inactive: 0.065"},
      {"target": "TFCP2 (UniProt Q12800)", "log2 fold change": "inactive: -0.087"},
      {"target": "TBC1D5 isoform 2 (UniProt Q92609)", "log2 fold change": "inactive: 0"},
      {"target": "TBC1D20 isoform 3 (UniProt Q96BZ9)", "log2 fold change": "inactive: 0.039"},
      {"target": "TGFBI (UniProt Q15582)", "log2 fold change": "inactive: -0.021"},
      {"target": "TJP1 (UniProt Q07157)", "log2 fold change": "inactive: 0.004"},
      {"target": "TFPI (UniProt P10646)", "log2 fold change": "inactive: -0.013"},
      {"target": "TFDP1 (UniProt Q14186)", "log2 fold change": "inactive: 0.045"},
      {"target": "TBRG4 (UniProt Q969Z0)", "log2 fold change": "inactive: -0.041"},
      {"target": "TJP2 isoform 7 (UniProt Q9UDY2)", "log2 fold change": "inactive: 0.006"},
      {"target": "TIFA (UniProt Q96CG3)", "log2 fold change": "inactive: -0.005"},
      {"target": "THYN1 (UniProt Q9P016)", "log2 fold change": "inactive: -0.015"},
      {"target": "TBC1D2B (UniProt Q9UPU7)", "log2 fold change": "inactive: 0.045"},
      {"target": "TBCD (UniProt Q9BTW9)", "log2 fold change": "inactive: -0.069"},
      {"target": "TBK1 (UniProt Q9UHD2)", "log2 fold change": "inactive: -0.027"},
      {"target": "TBC1D24 (UniProt Q9ULP9)", "log2 fold change": "inactive: 0.018"},
      {"target": "TK2 isoform 6 (UniProt O00142)", "log2 fold change": "inactive: 0.135"},
      {"target": "TEX2 isoform 2 (UniProt Q8IWB9)", "log2 fold change": "inactive: -0.001"},
      {"target": "TFE3 (UniProt P19532)", "log2 fold change": "inactive: -0.234"},
      {"target": "TCEAL1 isoform 2 (UniProt Q15170)", "log2 fold change": "inactive: -0.007"},
      {"target": "THRAP3 (UniProt Q9Y2W1)", "log2 fold change": "inactive: 0.014"},
      {"target": "THADA (UniProt Q6YHU6)", "log2 fold change": "inactive: 0.01"},
      {"target": "TCOF1 isoform 6 (UniProt Q13428)", "log2 fold change": "inactive: -0.07"},
      {"target": "TIMM44 (UniProt O43615)", "log2 fold change": "inactive: -0.028"},
      {"target": "TIMM29 (UniProt Q9BSF4)", "log2 fold change": "inactive: 0.044"},
      {"target": "TK1 (UniProt P04183)", "log2 fold change": "inactive: -0.046"},
      {"target": "TIMM21 (UniProt Q9BVV7)", "log2 fold change": "inactive: 0.02"},
      {"target": "TKT, A0A0B4J1R6", "log2 fold change": "inactive: -0.013"},
      {"target": "TCTN3 (UniProt Q6NUS6)", "log2 fold change": "inactive: 0.047"}
    ]},
    {"compound": "C[C@@H](Oc1cc(-c2cnn(C3CCNCC3)c2)cnc1N)c1c(Cl)ccc(F)c1Cl [crizotinib]", "test": "log2 fold change, soluble protein after heating vs DMSO (PISA); higher = thermal stabilisation; K562 cells, 10 uM, 30 min; active = over 0.2 and 3.5 SD of the protein, either way, in both replicates (recomputed)", "in_short": "as §1", "values": [
      {"target": "TERF2IP (UniProt Q9NYB0)", "log2 fold change": "inactive: 0.085"},
      {"target": "TBC1D23 (UniProt Q9NUY8)", "log2 fold change": "inactive: -0.019"},
      {"target": "TFAM (UniProt Q00059)", "log2 fold change": "inactive: 0.058"},
      {"target": "TGS1 (UniProt Q96RS0)", "log2 fold change": "inactive: -0.099"},
      {"target": "TENT5C (UniProt Q5VWP2)", "log2 fold change": "inactive: 0.043"},
      {"target": "TIPRL (UniProt O75663)", "log2 fold change": "inactive: -0.167"},
      {"target": "TFCP2 (UniProt Q12800)", "log2 fold change": "inactive: -0.118"},
      {"target": "TBC1D5 isoform 2 (UniProt Q92609)", "log2 fold change": "inactive: -0.24"},
      {"target": "TDRD7 (UniProt Q8NHU6)", "log2 fold change": "inactive: 0.105"},
      {"target": "TBC1D20 isoform 3 (UniProt Q96BZ9)", "log2 fold change": "inactive: -0.121"},
      {"target": "TGFBI (UniProt Q15582)", "log2 fold change": "inactive: -0.047"},
      {"target": "TJP1 (UniProt Q07157)", "log2 fold change": "inactive: -0.016"},
      {"target": "TFPI (UniProt P10646)", "log2 fold change": "inactive: 0.161"},
      {"target": "TBP (UniProt P20226)", "log2 fold change": "inactive: 0.048"},
      {"target": "TFDP1 (UniProt Q14186)", "log2 fold change": "inactive: 0.075"},
      {"target": "TBRG4 (UniProt Q969Z0)", "log2 fold change": "active: -0.676"},
      {"target": "TJP2 isoform 7 (UniProt Q9UDY2)", "log2 fold change": "inactive: -0.026"},
      {"target": "TIFA (UniProt Q96CG3)", "log2 fold change": "inactive: 0.049"},
      {"target": "THYN1 (UniProt Q9P016)", "log2 fold change": "inactive: 0.061"},
      {"target": "TBC1D2B (UniProt Q9UPU7)", "log2 fold change": "inactive: -0.009"},
      {"target": "TBCD (UniProt Q9BTW9)", "log2 fold change": "inactive: 0.001"},
      {"target": "TBK1 (UniProt Q9UHD2)", "log2 fold change": "active: 0.489"},
      {"target": "TBC1D24 (UniProt Q9ULP9)", "log2 fold change": "inactive: -0.235"},
      {"target": "TK2 isoform 6 (UniProt O00142)", "log2 fold change": "inactive: 0.029"},
      {"target": "TEX2 isoform 2 (UniProt Q8IWB9)", "log2 fold change": "inactive: 0.136"},
      {"target": "TFE3 (UniProt P19532)", "log2 fold change": "inactive: -0.414"},
      {"target": "TCEAL1 isoform 2 (UniProt Q15170)", "log2 fold change": "inactive: 0.034"},
      {"target": "THRAP3 (UniProt Q9Y2W1)", "log2 fold change": "inactive: 0.04"},
      {"target": "THADA (UniProt Q6YHU6)", "log2 fold change": "inactive: -0.168"},
      {"target": "TCOF1 isoform 6 (UniProt Q13428)", "log2 fold change": "inactive: 0.032"},
      {"target": "TIMM44 (UniProt O43615)", "log2 fold change": "inactive: -0.207"},
      {"target": "TCIRG1 (UniProt Q13488)", "log2 fold change": "inactive: -0.157"},
      {"target": "TIMM29 (UniProt Q9BSF4)", "log2 fold change": "inactive: 0.08"},
      {"target": "TK1 (UniProt P04183)", "log2 fold change": "inactive: 0.011"},
      {"target": "TIMM21 (UniProt Q9BVV7)", "log2 fold change": "inactive: -0.01"},
      {"target": "TEX30 (UniProt Q5JUR7)", "log2 fold change": "inactive: -0.206"},
      {"target": "TKT, A0A0B4J1R6", "log2 fold change": "inactive: 0.116"},
      {"target": "TCF25 (UniProt Q9BQ70)", "log2 fold change": "inactive: -0.111"},
      {"target": "TCTN3 (UniProt Q6NUS6)", "log2 fold change": "inactive: 0.143"},
      {"target": "THAP9 (UniProt Q9H5L6)", "log2 fold change": "inactive: -0.004"}
    ]}
  ]
}
